# Source: the supplement of paper PMC12819154, “High-throughput peptide-centric local stability assay extends protein–ligand identification to membrane proteins, tissues and bacteria” (Nature Structural & Molecular Biology, 2025)
# Protein sequences, listed by entry. Tags and fused reporters are not part of them. Lines headed by an entry give the natural chain unless they say otherwise; changes in a name come on top.
# UniProt P52613: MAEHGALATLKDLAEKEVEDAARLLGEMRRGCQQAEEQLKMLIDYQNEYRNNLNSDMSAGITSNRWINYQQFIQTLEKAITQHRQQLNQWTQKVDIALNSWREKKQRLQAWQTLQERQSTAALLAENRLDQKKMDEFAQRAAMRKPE
# UniProt P42624: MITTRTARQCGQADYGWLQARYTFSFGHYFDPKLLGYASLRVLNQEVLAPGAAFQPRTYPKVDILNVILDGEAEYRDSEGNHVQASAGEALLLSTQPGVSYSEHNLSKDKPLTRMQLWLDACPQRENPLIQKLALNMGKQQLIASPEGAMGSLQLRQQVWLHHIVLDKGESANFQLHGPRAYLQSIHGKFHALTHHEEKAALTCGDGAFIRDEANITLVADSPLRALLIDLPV
# UniProt P52627: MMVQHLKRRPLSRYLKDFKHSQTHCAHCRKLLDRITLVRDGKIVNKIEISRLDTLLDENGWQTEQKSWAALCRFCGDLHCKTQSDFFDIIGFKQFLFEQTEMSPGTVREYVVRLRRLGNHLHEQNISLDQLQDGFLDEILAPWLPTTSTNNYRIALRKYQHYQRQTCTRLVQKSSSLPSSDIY
# UniProt P45551: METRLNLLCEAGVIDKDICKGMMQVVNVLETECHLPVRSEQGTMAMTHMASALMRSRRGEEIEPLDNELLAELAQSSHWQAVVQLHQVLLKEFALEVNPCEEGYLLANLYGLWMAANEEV
# UniProt P43533: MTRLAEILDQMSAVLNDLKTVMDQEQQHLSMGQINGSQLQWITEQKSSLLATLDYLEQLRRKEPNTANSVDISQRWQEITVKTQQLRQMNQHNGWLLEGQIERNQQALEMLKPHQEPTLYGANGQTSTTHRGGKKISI
# UniProt P52086: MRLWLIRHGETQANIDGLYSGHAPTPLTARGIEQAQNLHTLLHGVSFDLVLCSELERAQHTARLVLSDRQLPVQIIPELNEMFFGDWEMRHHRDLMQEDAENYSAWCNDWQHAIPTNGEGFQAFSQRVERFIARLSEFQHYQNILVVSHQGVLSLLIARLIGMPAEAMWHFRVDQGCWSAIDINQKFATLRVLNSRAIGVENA
# UniProt P45545: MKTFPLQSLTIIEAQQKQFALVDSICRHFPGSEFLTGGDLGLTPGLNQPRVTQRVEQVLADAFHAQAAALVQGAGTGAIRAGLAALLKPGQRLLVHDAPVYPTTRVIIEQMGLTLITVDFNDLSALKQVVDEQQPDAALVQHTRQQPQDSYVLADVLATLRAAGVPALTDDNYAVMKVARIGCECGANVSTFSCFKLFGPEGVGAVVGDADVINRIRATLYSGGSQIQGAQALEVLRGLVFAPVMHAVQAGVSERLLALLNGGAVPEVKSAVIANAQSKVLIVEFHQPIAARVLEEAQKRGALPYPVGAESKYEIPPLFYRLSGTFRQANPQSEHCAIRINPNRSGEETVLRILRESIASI
# UniProt P39453: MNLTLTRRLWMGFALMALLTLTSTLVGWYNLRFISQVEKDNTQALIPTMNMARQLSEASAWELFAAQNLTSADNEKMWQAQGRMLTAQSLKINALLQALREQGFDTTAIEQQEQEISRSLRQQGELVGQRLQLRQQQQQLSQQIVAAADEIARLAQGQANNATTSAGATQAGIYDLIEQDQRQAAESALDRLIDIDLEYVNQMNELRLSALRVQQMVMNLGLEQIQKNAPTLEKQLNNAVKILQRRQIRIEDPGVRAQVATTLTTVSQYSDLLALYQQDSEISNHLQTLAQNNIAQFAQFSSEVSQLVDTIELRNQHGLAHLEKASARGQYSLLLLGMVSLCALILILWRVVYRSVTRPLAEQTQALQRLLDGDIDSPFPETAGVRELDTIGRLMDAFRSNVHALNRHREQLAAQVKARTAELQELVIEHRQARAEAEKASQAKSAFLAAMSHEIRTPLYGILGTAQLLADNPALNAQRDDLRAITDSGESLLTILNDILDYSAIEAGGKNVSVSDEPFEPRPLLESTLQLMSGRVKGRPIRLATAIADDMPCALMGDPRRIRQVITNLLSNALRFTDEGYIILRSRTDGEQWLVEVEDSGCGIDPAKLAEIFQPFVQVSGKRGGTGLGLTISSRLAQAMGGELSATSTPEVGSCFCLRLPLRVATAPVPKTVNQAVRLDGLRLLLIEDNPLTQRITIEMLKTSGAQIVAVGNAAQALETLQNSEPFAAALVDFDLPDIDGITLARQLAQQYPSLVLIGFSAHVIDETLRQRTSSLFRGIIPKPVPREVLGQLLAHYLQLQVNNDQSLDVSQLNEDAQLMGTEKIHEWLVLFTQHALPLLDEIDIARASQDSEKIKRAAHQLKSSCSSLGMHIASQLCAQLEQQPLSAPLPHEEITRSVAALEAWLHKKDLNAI
# UniProt P52636: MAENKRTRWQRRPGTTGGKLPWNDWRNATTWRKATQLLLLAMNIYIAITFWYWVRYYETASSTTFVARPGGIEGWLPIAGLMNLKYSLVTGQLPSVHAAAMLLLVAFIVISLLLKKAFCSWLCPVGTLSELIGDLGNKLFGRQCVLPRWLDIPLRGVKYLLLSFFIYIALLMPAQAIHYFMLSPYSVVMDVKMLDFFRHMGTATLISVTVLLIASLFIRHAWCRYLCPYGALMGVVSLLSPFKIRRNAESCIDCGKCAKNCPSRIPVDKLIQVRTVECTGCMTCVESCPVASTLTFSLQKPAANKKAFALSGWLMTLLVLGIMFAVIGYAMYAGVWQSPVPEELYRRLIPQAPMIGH
# UniProt P39363: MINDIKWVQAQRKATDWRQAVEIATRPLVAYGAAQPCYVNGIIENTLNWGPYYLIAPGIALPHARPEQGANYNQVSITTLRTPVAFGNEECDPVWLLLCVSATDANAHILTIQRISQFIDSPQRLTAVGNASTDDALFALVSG
# UniProt P56256: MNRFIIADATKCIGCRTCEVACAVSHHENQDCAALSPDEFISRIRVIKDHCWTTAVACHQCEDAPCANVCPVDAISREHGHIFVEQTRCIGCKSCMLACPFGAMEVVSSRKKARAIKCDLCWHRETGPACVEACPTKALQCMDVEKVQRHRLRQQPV
# UniProt P42590: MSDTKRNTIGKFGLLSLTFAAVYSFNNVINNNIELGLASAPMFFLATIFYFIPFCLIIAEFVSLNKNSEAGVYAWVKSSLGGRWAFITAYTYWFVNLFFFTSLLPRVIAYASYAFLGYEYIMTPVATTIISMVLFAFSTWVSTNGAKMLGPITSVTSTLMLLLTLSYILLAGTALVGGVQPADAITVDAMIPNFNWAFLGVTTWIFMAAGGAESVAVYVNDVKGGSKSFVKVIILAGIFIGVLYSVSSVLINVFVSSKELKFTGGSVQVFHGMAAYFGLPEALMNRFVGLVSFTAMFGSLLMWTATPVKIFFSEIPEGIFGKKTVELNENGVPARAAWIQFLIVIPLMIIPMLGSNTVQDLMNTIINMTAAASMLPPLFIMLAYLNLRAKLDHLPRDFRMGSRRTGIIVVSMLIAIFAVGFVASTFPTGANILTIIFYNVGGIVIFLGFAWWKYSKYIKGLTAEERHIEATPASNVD
# UniProt P40710: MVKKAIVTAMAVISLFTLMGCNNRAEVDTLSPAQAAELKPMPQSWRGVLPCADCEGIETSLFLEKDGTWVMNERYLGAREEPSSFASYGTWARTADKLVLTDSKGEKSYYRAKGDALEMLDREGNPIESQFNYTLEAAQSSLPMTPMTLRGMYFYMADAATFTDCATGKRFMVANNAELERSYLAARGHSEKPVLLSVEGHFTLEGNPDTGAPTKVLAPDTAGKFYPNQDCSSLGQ
# UniProt P45463: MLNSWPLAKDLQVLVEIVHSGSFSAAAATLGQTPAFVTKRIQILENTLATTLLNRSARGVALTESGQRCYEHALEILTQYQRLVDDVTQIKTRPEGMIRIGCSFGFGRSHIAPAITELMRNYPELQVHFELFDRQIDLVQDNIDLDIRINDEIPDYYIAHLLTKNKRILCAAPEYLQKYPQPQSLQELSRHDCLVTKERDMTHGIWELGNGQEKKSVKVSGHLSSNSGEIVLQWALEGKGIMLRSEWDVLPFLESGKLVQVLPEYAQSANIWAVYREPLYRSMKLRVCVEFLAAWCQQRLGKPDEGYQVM
# UniProt P66948: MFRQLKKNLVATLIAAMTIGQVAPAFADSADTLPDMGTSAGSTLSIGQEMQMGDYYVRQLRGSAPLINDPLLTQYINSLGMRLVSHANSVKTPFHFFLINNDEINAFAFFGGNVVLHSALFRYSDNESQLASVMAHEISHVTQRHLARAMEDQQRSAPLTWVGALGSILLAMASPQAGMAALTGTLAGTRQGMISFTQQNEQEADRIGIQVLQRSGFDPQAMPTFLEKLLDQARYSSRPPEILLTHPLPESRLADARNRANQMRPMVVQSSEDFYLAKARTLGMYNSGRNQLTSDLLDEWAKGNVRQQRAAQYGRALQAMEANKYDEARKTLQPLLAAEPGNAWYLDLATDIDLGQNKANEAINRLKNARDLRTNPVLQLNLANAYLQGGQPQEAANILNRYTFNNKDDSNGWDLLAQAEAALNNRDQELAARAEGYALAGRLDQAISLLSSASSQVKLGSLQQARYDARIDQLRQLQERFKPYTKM
# UniProt P41039: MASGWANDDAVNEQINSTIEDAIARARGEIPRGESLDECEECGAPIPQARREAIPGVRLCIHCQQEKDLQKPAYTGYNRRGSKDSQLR
# UniProt P46187: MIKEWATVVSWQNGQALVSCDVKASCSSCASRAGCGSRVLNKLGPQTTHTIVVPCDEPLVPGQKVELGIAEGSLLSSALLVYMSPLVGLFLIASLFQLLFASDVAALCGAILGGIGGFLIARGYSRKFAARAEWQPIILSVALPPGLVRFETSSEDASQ
# UniProt P52126: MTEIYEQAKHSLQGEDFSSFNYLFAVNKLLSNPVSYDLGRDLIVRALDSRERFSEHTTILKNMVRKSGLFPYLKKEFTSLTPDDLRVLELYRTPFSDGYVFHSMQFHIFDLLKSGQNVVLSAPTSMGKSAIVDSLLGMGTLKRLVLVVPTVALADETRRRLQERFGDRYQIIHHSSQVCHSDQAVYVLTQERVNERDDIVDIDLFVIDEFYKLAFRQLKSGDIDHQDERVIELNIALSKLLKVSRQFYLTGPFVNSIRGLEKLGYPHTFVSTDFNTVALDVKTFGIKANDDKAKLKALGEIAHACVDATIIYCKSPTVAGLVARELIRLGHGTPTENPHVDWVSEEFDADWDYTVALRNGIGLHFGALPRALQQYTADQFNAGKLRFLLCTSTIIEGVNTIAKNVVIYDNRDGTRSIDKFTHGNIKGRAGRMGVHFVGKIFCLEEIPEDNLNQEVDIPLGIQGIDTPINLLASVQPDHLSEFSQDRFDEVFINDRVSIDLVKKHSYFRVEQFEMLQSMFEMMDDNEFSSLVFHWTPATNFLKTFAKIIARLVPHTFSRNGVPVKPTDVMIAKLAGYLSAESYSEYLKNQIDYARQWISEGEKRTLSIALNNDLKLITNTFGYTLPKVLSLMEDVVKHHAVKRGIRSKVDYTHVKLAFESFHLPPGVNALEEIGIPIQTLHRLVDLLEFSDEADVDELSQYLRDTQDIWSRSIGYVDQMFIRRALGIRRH
# UniProt P52643: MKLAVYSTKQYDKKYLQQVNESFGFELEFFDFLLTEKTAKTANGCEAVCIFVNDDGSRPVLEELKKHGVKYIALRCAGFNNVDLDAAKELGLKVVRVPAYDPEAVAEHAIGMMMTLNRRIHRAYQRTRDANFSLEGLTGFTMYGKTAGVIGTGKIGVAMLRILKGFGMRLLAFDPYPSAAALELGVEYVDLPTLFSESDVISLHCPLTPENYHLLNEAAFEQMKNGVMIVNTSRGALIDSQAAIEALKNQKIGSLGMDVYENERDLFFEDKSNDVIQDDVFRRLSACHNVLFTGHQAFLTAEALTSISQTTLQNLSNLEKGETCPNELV
# UniProt P51981: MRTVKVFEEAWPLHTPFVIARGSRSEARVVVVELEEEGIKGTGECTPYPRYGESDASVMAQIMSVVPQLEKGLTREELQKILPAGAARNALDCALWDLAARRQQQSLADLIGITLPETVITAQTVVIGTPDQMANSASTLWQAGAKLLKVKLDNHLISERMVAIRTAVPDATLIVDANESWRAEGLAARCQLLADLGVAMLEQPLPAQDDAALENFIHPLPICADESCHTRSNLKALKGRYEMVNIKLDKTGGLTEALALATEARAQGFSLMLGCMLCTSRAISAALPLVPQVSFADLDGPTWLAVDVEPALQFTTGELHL
# UniProt P46122: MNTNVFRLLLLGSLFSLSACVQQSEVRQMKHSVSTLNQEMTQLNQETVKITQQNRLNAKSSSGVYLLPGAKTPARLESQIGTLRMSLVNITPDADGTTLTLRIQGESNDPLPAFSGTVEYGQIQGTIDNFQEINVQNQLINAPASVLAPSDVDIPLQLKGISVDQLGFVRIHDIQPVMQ
# UniProt P40711: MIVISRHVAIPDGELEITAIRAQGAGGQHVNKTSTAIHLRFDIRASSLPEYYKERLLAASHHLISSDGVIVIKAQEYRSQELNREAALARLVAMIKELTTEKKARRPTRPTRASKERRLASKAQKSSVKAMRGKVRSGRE
# UniProt P42904: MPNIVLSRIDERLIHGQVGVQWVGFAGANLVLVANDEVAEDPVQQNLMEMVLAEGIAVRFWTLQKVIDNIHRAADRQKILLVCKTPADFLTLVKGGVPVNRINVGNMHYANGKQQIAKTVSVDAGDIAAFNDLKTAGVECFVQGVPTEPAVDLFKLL
# Only a part is listed here, and it is no random draw. Most entries show no effect beyond the scatter of the controls.
# Compound: Nc1ncnc2c1ncn2[C@@H]1O[C@H](COP(=O)(O)OP(=O)(O)OP(=O)(O)O)[C@@H](O)[C@H]1O [adenosine 5'-triphosphate]
# Experiment: log2 fold change of tryptic peptide abundance, ligand vs vehicle (limited proteolysis) (log2 ratio); higher = more trypsin-susceptible (destabilized)
# Settings: ligand concentration: 5 mM; sample: E. coli desalted lysate; replicate design: treated before aliquoting
# Experimental: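 HT-PELSA: desalted E. coli K-12 BW25113 lysate (with 12 mM MgCl2) incubated with 5 mM ATP (pH 7) or water for 30 min at 25 C, then a 4 min trypsin pulse at 22 C. Peptides were quantified by DIA-MS (4 replicates). Value is the peptide log2 fold change (treated/control); negative = stabilized. Scale: negative = ligand-stabilized region.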
# 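Note: lysate desalted by size exclusion to strip endogenous ATP, peptide intensities built from DIA-NN precursor signals, and peptides missing any value discarded before comparison.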
row,Target,log2 fold change
1,"UniProt P52613 (peptide sequence: LQAWQTLQER, peptide start residue: 108)",-0.354
2,"UniProt P39356 (peptide sequence: IFLAGGER, peptide start residue: 287)",-0.234
3,"UniProt P52130 (peptide sequence: IIDEQDVPTHILSK, peptide start residue: 80)",0.697
4,"UniProt P39389 (peptide sequence: VLLCSSFSK, peptide start residue: 305)",-0.201
5,"UniProt P42624 (peptide sequence: AYLQSIHGK, peptide start residue: 181)",0.413
6,"UniProt P52062 (peptide sequence: CPYCDFNSHALK, peptide start residue: 20)",1.12
7,"UniProt P41052 (peptide sequence: QQLQEILSQAK, peptide start residue: 76)",0.194
8,"UniProt P52097 (peptide sequence: WLAGQNAPMPSR, peptide start residue: 261)",0.689
9,"UniProt P45470 (peptide sequence: GEASVTIDK, peptide start residue: 48)",-0.321
10,"UniProt P52627 (peptide sequence: KYQHYQR, peptide start residue: 158)",-1.41
11,"UniProt P45551 (peptide sequence: SEQGTMAMTHMASALMR, peptide start residue: 39)",0.394
12,"UniProt P43533 (peptide sequence: KEPNTANSVDISQR, peptide start residue: 62)",-0.425
13,"UniProt P45800 (peptide sequence: KLTPEER, peptide start residue: 44)",0.402
14,"UniProt P52086 (peptide sequence: HGETQANIDGLYSGHAPTPLTAR, peptide start residue: 8)",-0.168
15,"UniProt P45545 (peptide sequence: SAVIANAQSK, peptide start residue: 270)",0.0612
16,"UniProt P46883 (peptide sequence: HQEMGQPNVSTERR, peptide start residue: 470)",-0.577
17,"UniProt P39453 (peptide sequence: SNVHALNR, peptide start residue: 400)",0.418
18,"UniProt P45464 (peptide sequence: AFKPASTNK, peptide start residue: 250)",-0.649
19,"UniProt P52636 (peptide sequence: NAESCIDCGK, peptide start residue: 247)",-0.317
20,"UniProt P39363 (peptide sequence: ISQFIDSPQR, peptide start residue: 115)",0.167

row,Target,log2 fold change
1,"UniProt P46139 (peptide sequence: YINDTWGHATGDR, peptide start residue: 292)",-0.39
2,"UniProt P56256 (peptide sequence: ALQCMDVEKVQR, peptide start residue: 138)",-0.407
3,"UniProt P42590 (peptide sequence: HIEATPASNVD, peptide start residue: 467)",0.0519
4,"UniProt P40710 (peptide sequence: VLAPDTAGK, peptide start residue: 216)",-0.311
5,"UniProt P45463 (peptide sequence: SHIAPAITELMR, peptide start residue: 109)",0.418
6,"UniProt P66948 (peptide sequence: TLGMYNSGR, peptide start residue: 281)",0.205
7,"UniProt P41039 (peptide sequence: LCIHCQQEKDLQKPAYTGYNR, peptide start residue: 59)",-0.615
8,"UniProt P46187 (peptide sequence: ASCSSCASR, peptide start residue: 24)",-0.534
9,"UniProt P52126 (peptide sequence: SGDIDHQDER, peptide start residue: 220)",-0.551
10,"UniProt P54746 (peptide sequence: KRLDSYFDVLEK, peptide start residue: 197)",-0.598
11,"UniProt P52037 (peptide sequence: SNIPMQR, peptide start residue: 208)",0.0576
12,"UniProt P52643 (peptide sequence: NGVMIVNTSR, peptide start residue: 225)",-0.304
13,"UniProt P46890 (peptide sequence: NAMMEQALETGK, peptide start residue: 78)",-0.509
14,"UniProt P42604 (peptide sequence: IATNSELAAK, peptide start residue: 429)",0.496
15,"UniProt P51981 (peptide sequence: LDNHLISER, peptide start residue: 152)",0.94
16,"UniProt P46122 (peptide sequence: GISVDQLGFVR, peptide start residue: 160)",-0.169
17,"UniProt P45475 (peptide sequence: VGDWLEMAK, peptide start residue: 47)",0.406
18,"UniProt P40711 (peptide sequence: AQGAGGQHVNK, peptide start residue: 22)",-0.223
19,"UniProt P46854 (peptide sequence: KYGFEIEGTGKK, peptide start residue: 133)",0.398
20,"UniProt P42904 (peptide sequence: TPADFLTLVK, peptide start residue: 85)",0.239

# Pulled one by one from the entries so far, two records:
row,Target,log2 fold change
19,"UniProt P46854 (peptide sequence: KYGFEIEGTGKK, peptide start residue: 133)",0.398
5,"UniProt P45463 (peptide sequence: SHIAPAITELMR, peptide start residue: 109)",0.418
